# Test results: PubChem BioAssay AID602313 (National Center for Advancing Translational Sciences (NCATS), 2012)
# The campaign covered roughly 390,000 compounds. About 760 (0.19%) were called active. Inconclusive means that the source gave no clear call. Such entries were picked first, then a sample of the others. Calls follow the shape of the dose curve; as a rule, active = well fitted inhibition curve with a large enough effect; inconclusive = small, poorly fitted or top-dose-only effect; inactive = flat fitted curve, though single readings scatter. Potencies of inconclusive entries are doubtful fits and often do not repeat.
# Test: qHTS for Inhibitors of Vif-A3F Interactions: qHTS; also: nearly all actives have a fitted effect of over 65% in size
# Conditions: HeLa A3F-eYFP + Vif (tagged APOBEC3F with the HIV-1 protein that degrades it), YFP fluorescence increase; series mostly up to 46.1 µM
# Procedure, shortened: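 HeLa cells stably expressing A3F-eYFP plus Vif, plated and incubated overnight at 37 deg C, then exposed to compounds overnight at 37 deg C. Blocked degradation read as raised yellow fluorescence (Ex 488/Em 500-530).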
# Potency is read from the fitted curve at half-maximal effect.
row,Compound,Potency
1,O=C(OCc1cc(=O)n2nc(C3CC3)sc2n1)c1ccc(NC(=O)c2ccccc2F)cc1,"inconclusive: 20 µM [inhibitor, partial curve, poor fit]"
2,COc1cc(OC)cc(Oc2ccc(S(=O)(=O)N3CCCCC3)cc2[N+](=O)[O-])c1,"inconclusive: 5.62 µM [inhibitor, single point]"
3,Cc1ccc2c(nc3s/c(=C\c4ccc(-c5ccccc5C(=O)O)o4)c(=O)n32)c1C,"inconclusive: 3.16 µM [inhibitor, single point]"
4,CCCc1cc(=O)c2c(O)cccc2o1,inactive
5,COc1cccc(CN(C)C(=O)c2cc(-c3ccc(OC)c(OC)c3)nc3ccccc23)c1,"inconclusive: 3.16 µM [inhibitor, single point]"
6,CCSc1ccc2c(c1)N(CCCN1CCN(C)CC1)c1ccccc1S2,inactive
7,Cc1ccccc1COn1nnc2ccc(S(=O)(=O)N3CCOCC3)cc21,"inconclusive: 6.31 µM [inhibitor, single point]"
8,O=S(=O)(/C=C/c1ccccc1)c1ccccc1,"inconclusive: 6.31 µM [inhibitor, single point]"
9,Cc1ccc(-c2nnc(SCC(=O)N/N=C/c3ccc(C)s3)n2-c2ccccc2)cc1,inactive
10,O=C(CSc1cccc[n+]1[O-])c1cccs1,"inconclusive: 22.4 µM [inhibitor, partial curve, poor fit]"
11,COCCCN1C(=O)c2ccc(C(=O)OCC(=O)NCc3cccc(OC)c3)cc2C1=O,"inconclusive: 35.5 µM [inhibitor, single point]"
12,Cc1ccc(-c2cc(C(F)F)nc(N3CCOCC3)n2)cc1,"inconclusive: 35.5 µM [inhibitor, single point]"
13,CCOC(=O)NC(=O)/C(C#N)=N\Nc1cccc(Cl)c1,inactive
14,N/C(=N\OC(=O)c1cnn(-c2ccccc2)c1C(F)(F)F)c1cc(C(F)(F)F)cc(C(F)(F)F)c1,"inconclusive: 1.58 µM [inhibitor, partial curve, poor fit]"
15,O=C(NCc1cccc(F)c1)c1cccc2c1C(=O)c1ccc(N3CCCC3)cc1S2(=O)=O,"inconclusive: 35.5 µM [inhibitor, single point]"
16,O=C1CSC(=S)N1Cc1cccnc1,active: 11.2 µM
17,CCOC(=O)c1c(-c2ccccc2)oc2ccc(OCC)cc12,inactive
18,Nc1c(C(=O)c2ccccc2)sc(Nc2ccc(Cl)c(Cl)c2)c1C(=O)Nc1ccccc1,inactive
19,NC(=O)c1cc(-c2csc(NCCc3ccccc3)n2)ccc1O,"inconclusive: 35.5 µM [inhibitor, single point]"
20,NC(=S)NN=C(c1ccccc1)c1ccccc1,"inconclusive: 25.1 µM [inhibitor, single point]"
21,CCN(c1ccccc1)S(=O)(=O)c1ccc(C(=O)Nc2c(C)n(C)n(-c3ccccc3)c2=O)cc1,"inconclusive: 6.31 µM [inhibitor, single point]"
22,Cc1cccc(NC(=O)c2ccccc2NC(=O)C2CCCCC2)c1C,inactive
23,O=C1/C(=C/c2cccnc2)CC/C1=C\c1cccnc1,"inconclusive: 35.5 µM [inhibitor, single point]"
24,O=C(CSc1nnc(-c2n[nH]c3ccccc23)n1-c1ccccc1)Nc1cccc(Cl)c1,"inconclusive: 22.4 µM [inhibitor, single point]"

# Part of the list above in order of count of non-hydrogen atoms, largest number first.
row,Compound,Potency
21,CCN(c1ccccc1)S(=O)(=O)c1ccc(C(=O)Nc2c(C)n(C)n(-c3ccccc3)c2=O)cc1,"inconclusive: 6.31 µM [inhibitor, single point]"
1,O=C(OCc1cc(=O)n2nc(C3CC3)sc2n1)c1ccc(NC(=O)c2ccccc2F)cc1,"inconclusive: 20 µM [inhibitor, partial curve, poor fit]"
11,COCCCN1C(=O)c2ccc(C(=O)OCC(=O)NCc3cccc(OC)c3)cc2C1=O,"inconclusive: 35.5 µM [inhibitor, single point]"
9,Cc1ccc(-c2nnc(SCC(=O)N/N=C/c3ccc(C)s3)n2-c2ccccc2)cc1,inactive
3,Cc1ccc2c(nc3s/c(=C\c4ccc(-c5ccccc5C(=O)O)o4)c(=O)n32)c1C,"inconclusive: 3.16 µM [inhibitor, single point]"
2,COc1cc(OC)cc(Oc2ccc(S(=O)(=O)N3CCCCC3)cc2[N+](=O)[O-])c1,"inconclusive: 5.62 µM [inhibitor, single point]"
7,Cc1ccccc1COn1nnc2ccc(S(=O)(=O)N3CCOCC3)cc21,"inconclusive: 6.31 µM [inhibitor, single point]"
22,Cc1cccc(NC(=O)c2ccccc2NC(=O)C2CCCCC2)c1C,inactive
19,NC(=O)c1cc(-c2csc(NCCc3ccccc3)n2)ccc1O,"inconclusive: 35.5 µM [inhibitor, single point]"
17,CCOC(=O)c1c(-c2ccccc2)oc2ccc(OCC)cc12,inactive
12,Cc1ccc(-c2cc(C(F)F)nc(N3CCOCC3)n2)cc1,"inconclusive: 35.5 µM [inhibitor, single point]"
23,O=C1/C(=C/c2cccnc2)CC/C1=C\c1cccnc1,"inconclusive: 35.5 µM [inhibitor, single point]"
20,NC(=S)NN=C(c1ccccc1)c1ccccc1,"inconclusive: 25.1 µM [inhibitor, single point]"
8,O=S(=O)(/C=C/c1ccccc1)c1ccccc1,"inconclusive: 6.31 µM [inhibitor, single point]"
10,O=C(CSc1cccc[n+]1[O-])c1cccs1,"inconclusive: 22.4 µM [inhibitor, partial curve, poor fit]"
4,CCCc1cc(=O)c2c(O)cccc2o1,inactive
16,O=C1CSC(=S)N1Cc1cccnc1,active: 11.2 µM

# Another view of two compounds above:
row | Compound | Potency
7 | Cc1ccccc1COn1nnc2ccc(S(=O)(=O)N3CCOCC3)cc21 | inconclusive: 6.31 µM [inhibitor, single point]
18 | Nc1c(C(=O)c2ccccc2)sc(Nc2ccc(Cl)c(Cl)c2)c1C(=O)Nc1ccccc1 | inactive

# (listing goes on)

row,Compound,Potency
1,COc1ccc(C(=O)NCC(c2ccc3c(c2)OCO3)N2CCOCC2)cc1OC (configuration not stated),inactive
2,COc1cccc(N2C(=O)N(c3ccccc3Cl)C3CS(=O)(=O)CC32)c1 (configuration not stated),inactive
3,CCOC(=O)C1=C(Cc2ccc(F)cc2)C(=O)c2ccccc2C1=O,active: 25.1 µM
4,Cc1cc(OCC(=O)N(Cc2ccco2)c2c(N)n(Cc3ccccc3)c(=O)[nH]c2=O)ccc1Cl,"inconclusive: 35.5 µM [inhibitor, single point]"
5,CSc1ccc(C2C(C(=O)c3ccco3)=C(O)C(=O)N2c2nnc(SC)s2)cc1 (configuration not stated),"inconclusive: 35.5 µM [inhibitor, single point]"
6,CC(Sc1nc2c([nH]c3ccccc32)c(=O)n1-c1ccccc1)c1ccccc1 (configuration not stated),inactive
7,CS(=O)(=O)c1ccc(Cl)c(NC(=O)COC(=O)c2cccc(C#N)c2)c1,"inconclusive: 31.6 µM [inhibitor, single point]"
8,CCc1noc(C)c1C(=O)N1CCCC(CCC(=O)NCc2ccc(F)c(F)c2)C1 (configuration not stated),"inconclusive: 8.91 µM [inhibitor, partial curve, poor fit]"
9,CC(Oc1ccccc1)C(=O)NNC(=O)c1ccccn1 (configuration not stated),inactive
10,CCN(CC)c1ccc(NC(=S)NC(=O)C2CCC2)cc1,"inconclusive: 22.4 µM [inhibitor, partial curve, poor fit]"
11,CCOc1ccc(Cl)cc1/C=C1/C(=O)ON=C1C,inactive
12,COc1cc(OC)c(NC(=O)N2CC=C(c3c[nH]c4ccccc34)CC2)cc1Cl,"inconclusive: 31.6 µM [inhibitor, single point]"
13,CC1CCCCN1C(=O)COc1ccccc1F (configuration not stated),"inconclusive: 0.562 µM [inhibitor, full curve, poor fit]"
14,CCC1Oc2ccc(C)cc2N(CC(=O)N(Cc2ccc(C)o2)C2CCCC2)C1=O (configuration not stated),inactive
15,Cc1ccc(C)c(NC(=O)CN(C)C(=O)c2cc(S(=O)(=O)N3CCOCC3)ccc2N2CCCC2)c1,"inconclusive: 3.55 µM [inhibitor, single point]"
16,COc1ccc(NC2CCCN(C(=O)CSc3ccncc3)C2)cc1 (configuration not stated),"inconclusive: 3.16 µM [inhibitor, single point]"
17,COc1ccc(C)cc1Nc1n[n+](-c2ccccc2)c(-c2ccc(OC)c(OC)c2OC)s1,inactive
18,CCOC(=O)c1sc(N/N=C/c2cc(Br)c(O)c(OC)c2)nc1C,"inconclusive: 35.5 µM [inhibitor, single point]"
19,CCc1ccc(NC(=O)CS(=O)CC(=O)Nc2ccc(N3CCOCC3)cc2)cc1 (configuration not stated),"inconclusive: 3.98 µM [inhibitor, partial curve]"
20,N#Cc1c(Nc2ccccc2)s[nH]c1=O,"inconclusive: 22.4 µM [inhibitor, single point]"
21,O=C(N/N=C\C=C\c1ccco1)C1COc2ccccc2O1 (configuration not stated),"inconclusive: 17.8 µM [inhibitor, partial curve, poor fit]"
22,Cc1ccc(C(=O)Nc2cccc(NC(=O)c3ccc(C)c([N+](=O)[O-])c3)n2)cc1[N+](=O)[O-],"inconclusive: 11.2 µM [inhibitor, partial curve, poor fit]"
23,CN(Cc1nc(CCc2ccccc2)no1)Cc1cccs1,"inconclusive: 11.2 µM [inhibitor, partial curve, poor fit]"
24,Cc1ccc(OCC(=O)Nc2ccc(S(=O)(=O)N3CCOCC3)cc2)c(C)c1,"inconclusive: 6.31 µM [inhibitor, single point]"

row,Compound,Potency
1,CC1=C(SCc2ccccc2)C(=O)c2ccccc2C1=O,"inconclusive: 12.6 µM [inhibitor, single point]"
2,COc1ccc(NS(=O)(=O)c2ccc3c(c2)NC(=O)CO3)cc1,inactive
3,CCN(C(=O)CSc1nc2ccccc2n1CC(=O)N1CCCC(C)C1)c1ccccc1 (configuration not stated),inactive
4,O=c1[nH]c2cc(Br)cnc2nc1/C=C(\O)c1ccc(F)cc1,active: 10 µM
5,Cc1sc2ncnc(N=Nc3c(O)[nH]c4ccccc34)c2c1C,active: 22.4 µM
6,Cn1c(N)c(C(=O)COC(=O)C2CCCC2)c(=O)n(C)c1=O,inactive
7,CCOC(=O)c1c(-c2cccs2)csc1NC(=O)CSc1ncn[nH]1,inactive
8,Cc1ccc(Cc2c(-c3ccc(C)cc3)nc3cc(C)ccn23)cc1,"inconclusive: 35.5 µM [inhibitor, partial curve, poor fit]"
9,COC(=O)c1ccc(NC(=O)CC2C(=O)N(c3cccc(C)c3)C(=O)N2C2CCCC2)cc1 (configuration not stated),inactive
10,Cc1ccc(/C(N)=N/OC(=O)Cc2cccc3ccccc23)cc1,inactive
11,Cc1cc(=O)n(CC(=O)NC(C)c2ccccc2)c2c1c(C)nn2C (configuration not stated),inactive
12,Cc1[nH]c2ccccc2c1/C=C/c1nc2ccccc2c(=O)n1-c1cccc([N+](=O)[O-])c1,"inconclusive: 31.6 µM [inhibitor, single point]"
13,CCc1c(C(C)S(=O)(=O)c2ccccc2)[nH]c(=O)n1CC (configuration not stated),inactive
14,CCOC(=O)C(=CNNc1cccc(Cl)c1)C(=O)OCC,inactive
15,CCOCCn1c2ccccc2c2nc3ccccc3nc21,"inconclusive: 22.4 µM [inhibitor, single point]"
16,Cc1c(NC(=O)CSc2ccc(Cl)cc2)cccc1-c1nc2cc(Cl)ccc2o1,"inconclusive: 35.5 µM [inhibitor, single point]"
17,O=S(=O)(c1ccc(Cl)cc1)N1CCc2ccccc21,"inconclusive: 28.2 µM [inhibitor, single point]"
18,CC(=O)Nc1sc(N/N=C\c2ccccc2Cl)nc1-c1cccs1,"inconclusive: 10 µM [inhibitor, partial curve, poor fit]"
19,CCN(CC)C(=O)c1sc2nc(-c3cccs3)cc(-c3ccc(Cl)cc3)c2c1N,"inconclusive: 17.8 µM [inhibitor, partial curve, poor fit]"
20,CN(C)CCNc1ccc2ncn3c4ccc(O)cc4c(=O)c1c23,active: 25.1 µM
21,CCCC(=O)N1CCCC(c2nc(-c3cccc(OC)c3)no2)C1 (configuration not stated),inactive
22,CCCCOC(=O)c1ccc(NC(=O)/C(C#N)=C/c2ccc(C)o2)cc1,inactive
23,COC(=O)CSc1cc(C(=O)c2nccn2C)c2ccccc2n1,inactive
24,O=C(NC(=S)N1CCN(C/C=C/c2ccccc2)CC1)c1cccnc1,"inconclusive: 35.5 µM [inhibitor, single point]"
